Measured values reported in patent publication US20210261642A1, “SOLUBILITY OF GLP-1 PEPTIDE” (Novo Nordisk A/S, priority 2017, published 2021).
The source gives many values for each of these; only a part stands here.

Test: Assay (I): Determination of Solubility (96-well plate, pH 3.0-11.0, organic solvent 0-70% w/w, UV absorption at 280 nm)
Format: physicochemical
Details: MeCN 70.0% w/w
Description: Assay (I): Determination of Solubility
96-Well Plate Preparation
96-well plates containing target peptide in a solid form were prepared in one of two ways:
Method 1 (evaporation): Addition of 100 μl stock solution of said peptide at a concentration of 4-6 mg/ml to each well of a 96-well half area plate (150 μl well size). Subsequently the solvent was evaporated by applying a vacuum until the solvent was completely removed.
Method 2 (precipitation): Addition of a certain volume of a stock solution of said peptide containing to each well of a 96-well half area plate followed by the addition of a certain volume of concentrated phosphoric acid to obtain a pH of 4.6 followed by addition of a certain volume of ethanol resulting in a final ethanol concentration of 20% v/v. Subsequently the plate was stored at 4° C. for 1 h and then centrifuged at 4,000 rpm for 20 min. Finally the supernatant was removed. The concentration of the stock solution was chosen in a way that the final amount of peptide after supernatant removal was >0.4 mg per well.
In both cases the stock solution was prepared by adding de-ionized water to a certain amount of powder of said peptide followed by a stepwise addition of small amounts of a concentrated sodium hydroxide solution until said peptide was completely in solution.
To determine solubility of a target peptide at different pH and organic solvent concentrations, two different buffer systems were used in independent experiments to cover the whole range from pH 3.0 to pH 11.0. Buffer system 1 covers pH 3.0-7.5 and buffer system 2 covers pH 7.5-11.0. For each buffer system 96 different solvent compositions were premixed in the following way: • 1. A low pH buffer (adjusted to either pH 3.0 or pH 7.5) and a high pH buffer (adjusted to either pH 7.5 or pH 11.0) were mixed at 8 different ratios to obtain values between pH 3.0 and pH 7.5 or pH 7.5 and pH 11.0, respectively. The total volume after mixing was 300 μl. • 2. 12 different amounts of organic solvent were then added to these buffers to obtain organic solvent (e.g. ethanol) concentrations between 0 and 70% w/w. • 3. Water was then added to obtain a total weight of 1.0 g of solvent in each well.
After preparing the 96 different solvent systems, 100 μl of each system was transferred to the 96-well plate containing the solid form of the target peptide (prepared as described in the section “96-well plate preparation”). The plate was then stored at a given temperature (between 5° C. and 70° C.) for a given time on a rotating shaker set to 400 rpm. At regular time intervals the plate was centrifuged (4,000 rpm for 10 min) and a 10 μl sample was taken from each well. The samples were then analysed by UV absorption at 280 nm for peptide quantification. Peptide concentration results are given as UV absorption at 280 nm of the sample subtracted UV absorption at 280 nm of a well comprising 10 μl water.
The buffers used were as follows: • Buffer system 1 (for the pH range from pH 3.0-7.5)
• Buffer system 2 (for the pH ranae from pH 7.5-11.0)
Solubility of liraglutide was determined using Assay (I) described herein. Liraglutide was prepared using Method 1 (evaporation) or Method 2 (precipitation) as described in subsection “96-well plate preparation”.

[1] = pH 8.0, 70° C., Method 1 (evaporation)

## CCCCCCCCCCCCCCCC(=O)N[C@@H](CCC(=O)NCCCC[C@H](NC(=O)[C@H](C)NC(=O)[C@H](C)NC(=O)[C@H](CCC(N)=O)NC(=O)CNC(=O)[C@H](CCC(=O)O)NC(=O)[C@H](CC(C)C)NC(=O)[C@H](Cc1ccc(O)cc1)NC(=O)[C@H](CO)NC(=O)[C@H](CO)NC(=O)[C@@H](NC(=O)[C@H](CC(=O)O)NC(=O)[C@H](CO)NC(=O)[C@@H](NC(=O)[C@H](Cc1ccccc1)NC(=O)[C@@H](NC(=O)CNC(=O)[C@H](CCC(=O)O)NC(=O)[C@H](C)NC(=O)[C@@H](N)Cc1cnc[nH]1)[C@@H](C)O)[C@@H](C)O)C(C)C)C(=O)N[C@@H](CCC(=O)O)C(=O)N[C@@H](Cc1ccccc1)C(=O)N[C@H](C(=O)N[C@@H](C)C(=O)N[C@@H](Cc1c[nH]c2ccccc12)C(=O)N[C@@H](CC(C)C)C(=O)N[C@H](C(=O)N[C@@H](CCCNC(=N)N)C(=O)NCC(=O)N[C@@H](CCCNC(=N)N)C(=O)NCC(=O)O)C(C)C)[C@@H](C)CC)C(=O)O [liraglutide, Arg34,Lys26-(N-epsilon-(gamma-L-glutamyl(N-alfa-hexadecanoyl)))-GLP-1(7-37)]
pH 3.0, RT, Method 1
  Peptide concentration after 24 h: 0.8 mg/mL
pH 3.6, 5° C., Method 1
  Peptide concentration after 5 min: 0.2 mg/mL
  Peptide concentration after 180 min: 0.4 mg/mL
  Peptide concentration after 24 h: 0.6 mg/mL
pH 3.6, 70° C., Method 1
  Peptide concentration after 5 min: 0.4 mg/mL
  Peptide concentration after 180 min: 2.5 mg/mL
pH 3.6, RT, Method 1
  Peptide concentration after 5 min: 0.2 mg/mL
  Peptide concentration after 180 min: 0.3 mg/mL
  Peptide concentration after 24 h: 0.4 mg/mL
pH 4.3, 5° C., Method 1
  Peptide concentration after 5 min: 0.2 mg/mL
  Peptide concentration after 180 min: 0.3 mg/mL
  Peptide concentration after 24 h: 0.5 mg/mL
pH 4.3, 70° C., Method 1
  Peptide concentration after 5 min: 0.5 mg/mL
  Peptide concentration after 180 min: 2.4 mg/mL
pH 4.3, RT, Method 1
  Peptide concentration after 5 min: 0.2 mg/mL
  Peptide concentration after 180 min: 0.3 mg/mL
  Peptide concentration after 24 h: 0.3 mg/mL
pH 4.9, 5° C., Method 1
  Peptide concentration after 5 min: 0.2 mg/mL
  Peptide concentration after 180 min: 0.3 mg/mL
  Peptide concentration after 24 h: 0.5 mg/mL
pH 4.9, 70° C., Method 1
  Peptide concentration after 5 min: 0.5 mg/mL
  Peptide concentration after 180 min: 2.4 mg/mL
pH 4.9, RT, Method 1
  Peptide concentration after 5 min: 0.2 mg/mL
  Peptide concentration after 180 min: 0.3 mg/mL
  Peptide concentration after 24 h: 0.3 mg/mL
pH 5.6, 70° C., Method 1
  Peptide concentration after 5 min: 0.5 mg/mL
  Peptide concentration after 180 min: 2.6 mg/mL
pH 5.6, RT, Method 1
  Peptide concentration after 5 min: 0.2 mg/mL
  Peptide concentration after 180 min: 0.2 mg/mL
  Peptide concentration after 24 h: 0.3 mg/mL
pH 6.2, 70° C., Method 1
  Peptide concentration after 5 min: 0.5 mg/mL
  Peptide concentration after 180 min: 3.7 mg/mL
pH 6.2, RT, Method 1
  Peptide concentration after 5 min: 0.2 mg/mL
  Peptide concentration after 180 min: 0.3 mg/mL
  Peptide concentration after 24 h: 0.5 mg/mL
pH 6.9, 70° C., Method 1
  Peptide concentration after 5 min: 0.5 mg/mL
  Peptide concentration after 180 min: 3.6 mg/mL
pH 6.9, RT, Method 1
  Peptide concentration after 5 min: 0.2 mg/mL
  Peptide concentration after 180 min: 0.2 mg/mL
  Peptide concentration after 24 h: 0.4 mg/mL
pH 7.5, 70° C., Method 1
  Peptide concentration after 5 min: 0.7 mg/mL
  Peptide concentration after 180 min: 3.3 mg/mL
pH 7.5, RT, Method 1
  Peptide concentration after 5 min: 0.3 mg/mL
  Peptide concentration after 180 min: 0.8 mg/mL
  Peptide concentration after 24 h: 1.9 mg/mL
[1]
  Peptide concentration after 5 min: 1.2 mg/mL
  Peptide concentration after 180 min: 3.8 mg/mL
pH 8.0, RT, Method 1
  Peptide concentration after 5 min: 0.2 mg/mL
  Peptide concentration after 180 min: 0.9 mg/mL
  Peptide concentration after 24 h: 1.9 mg/mL
